Source: patent US7345038B2, “Pyridyloxymethyl and benzisoxazole azabicyclic derivatives” (Pfizer, Inc, priority 2003, dated 2008)
Some results were stated once for a whole list of compounds, not compound by compound. At least one structure is not confirmed: it was looked up by name or label, or the drawing left a doubt.

Target: D2, 5HT1B and 5HT2A receptors
Test: Receptor binding, Ki at D2, 5HT1B and 5HT2A receptors
Details: about 20 nM or less for at least two of the receptors D2, 5HT1B and 5HT2A, or an effective Ki value at about 10 nM or less for each of said receptors; receptor not specified per compound

Compound	Ki
COCCN(C)Cc1cccc(OC[C@@H]2CC[C@H]3CN(c4noc5ccccc45)CCN3C2)n1 [Example 79, (7R,9aS)-trans-[6-(2-Benzo[d]isoxazol-3-yl-octahydro-pyrido[1,2-a]pyrazin-7-ylmethoxy)-pyridin-2-ylmethyl]-(2-methoxy-ethyl)-methyl-amine]	≤ 20 nM
c1cc(CN2CCCC2)nc(OC[C@@H]2CC[C@H]3CN(c4noc5ccccc45)CCN3C2)c1 [Example 97, (7R,9aS)-trans-2-Benzo[d]isoxazol-3-yl-7-(6-pyrrolidin-1-ylmethyl-pyridin-2-yloxymethyl)-octahydro-pyrido[1,2-a]pyrazine]	≤ 20 nM
CC1CCCN1Cc1ccc(OCC2CCC3CN(c4noc5ccccc45)CCN3C2)nc1 [Example 71, (7R,9aS)-trans-2-Benzo[d]isoxazol-3-yl-7-[5-(2-methyl-pyrrolidin-1-ylmethyl)-pyridin-2-yloxymethyl]-octahydro-pyrido[1,2-a]pyrazine]	≤ 20 nM
CC(C)(C)NCc1ccc(OC[C@@H]2CC[C@H]3CN(c4noc5ccccc45)CCN3C2)nc1 [Example 63, (7R,9aS)-trans-[6-(2-Benzo[d]isoxazol-3-yl-octahydro-pyrido[1,2-a]pyrazin-7-ylmethoxy)-pyridin-3-ylmethyl]-tert-butyl-amine]	≤ 20 nM
CN(C)Cc1ccc(OC[C@@H]2CC[C@H]3CN(c4noc5ccccc45)CCN3C2)nc1 [Example 68, (7R,9aS)-trans-[6-(2-Benzo[d]isoxazol-3-yl-octahydro-pyrido[1,2-a]pyrazin-7-ylmethoxy)-pyridin-3-ylmethyl]-dimethyl-amine]	≤ 20 nM
CCN(C)Cc1ccc(OC[C@H]2CC[C@H]3CN(c4noc5ccccc45)CCN3C2)nc1 [Example 74, (7S,9aS)-cis-[6-(2-Benzo[d]isoxazol-3-yl-octahydro-pyrido[1,2-a]pyrazin-7-ylmethoxy)-pyridin-3-ylmethyl]-ethyl-methyl-amine]	≤ 20 nM
c1ccc2c(N3CCN4C[C@@H](COc5ccc(CN6CCCC6)cn5)CC[C@H]4C3)noc2c1 [Example 104, (7S,9aS)-cis-2-Benzo[d]isoxazol-3-yl-7-(5-pyrrolidin-1-ylmethyl-pyridin-2-yloxymethyl)-octahydro-pyrido[1,2-a]pyrazine]	≤ 20 nM
COCC1CCCN1Cc1ccc(OC[C@@H]2CC[C@H]3CN(c4noc5ccccc45)CCN3C2)nc1 (relative stereo) [Example 62, (7R,9aS)-trans-2-Benzo[d]isoxazol-3-yl-7-[5-(2-methoxymethyl-pyrrolidin-1-ylmethyl)-pyridin-2-yloxymethyl]-octahydro-pyrido[1,2-a]pyrazine]	≤ 20 nM
COCC(C)NCc1ccc(OCC2CCC3CN(c4noc5ccccc45)CCN3C2)nc1 [Example 70, (7R,9aS)-trans-[6-(2-Benzo[d]isoxazol-3-yl-octahydro-pyrido[1,2-a]pyrazin-7-ylmethoxy)-pyridin-3-ylmethyl]-(2-methoxy-1-methyl-ethyl)-amine]	≤ 20 nM
CN(Cc1ccc(OC[C@H]2CC[C@H]3CN(c4noc5ccccc45)CCN3C2)nc1)C1CCCCC1 [Example 88, (7S,9aS)-cis-[6-(2-Benzo[d]isoxazol-3-yl-octahydro-pyrido[1,2-a]pyrazin-7-ylmethoxy)-pyridin-3-ylmethyl]-cyclohexyl-methyl-amine]	≤ 20 nM
CN(Cc1ccc(OC[C@@H]2CC[C@H]3CN(c4noc5ccccc45)CCN3C2)nc1)C1CCCC1 [Example 58, (7R,9aS)-trans-[6-(2-Benzo[d]isoxazol-3-yl-octahydro-pyrido[1,2-a]pyrazin-7-ylmethoxy)-pyridin-3-ylmethyl]-cyclopentyl-methyl-amine]	≤ 20 nM
Fc1ccc2onc(N3CCN4C[C@H](COc5ccc(CN6CCCC6)cn5)CC[C@H]4C3)c2c1 [Example 91, (7R,9aS)-trans-2-(5-Fluoro-benzo[d]isoxazol-3-yl)-7-(5-pyrrolidin-1-ylmethyl-pyridin-2-yloxymethyl)-octahydro-pyrido[1,2-a]pyrazine]	≤ 20 nM
O[C@H]1CCN(Cc2ccc(OC[C@@H]3CC[C@H]4CN(c5noc6ccccc56)CCN4C3)nc2)C1 [Example 54, (7R,9aS)-trans-1-[6-(2-Benzo[d]isoxazol-3-yl-octahydro-pyrido[1,2-a]pyrazin-7-ylmethoxy)-pyridin-3-ylmethyl]-pyrrolidin-3-ol]	≤ 20 nM
c1cc(CN2CCOCC2)nc(OC[C@@H]2CC[C@H]3CN(c4noc5ccccc45)CCN3C2)c1 [Example 99, (7R,9aS)-trans-2-Benzo[d]isoxazol-3-yl-7-(6-morpholin-4-ylmethyl-pyridin-2-yloxymethyl)-octahydro-pyrido[1,2-a]pyrazine]	≤ 20 nM
c1ccc2c(N3CCN4C[C@H](COc5ccc(CN6CCCC6)cn5)CC[C@H]4C3)noc2c1 [Example 90, (7R,9aS)-trans-2-Benzo[d]isoxazol-3-yl-7-(5-pyrrolidin-1-ylmethyl-pyridin-2-yloxymethyl)-octahydro-pyrido[1,2-a]pyrazine]	≤ 20 nM
CCN(C)Cc1ccc(OC[C@@H]2CC[C@H]3CN(c4noc5ccccc45)CCN3C2)nc1 [Example 69, (7R,9aS)-trans-[6-(2-Benzo[d]isoxazol-3-yl-octahydro-pyrido[1,2-a]pyrazin-7-ylmethoxy)-pyridin-3-ylmethyl]-ethyl-methyl-amine]	≤ 20 nM
O[C@@H]1CCN(Cc2cccc(OC[C@@H]3CC[C@H]4CN(c5noc6ccccc56)CCN4C3)n2)C1 [Example 86, (7R,9aS)-trans-1-[6-(2-Benzo[d]isoxazol-3-yl-octahydro-pyrido[1,2-a]pyrazin-7-ylmethoxy)-pyridin-2-ylmethyl]-(R)-pyrrolidin-3-ol]	≤ 20 nM
OC1CCN(Cc2ccc(OC[C@@H]3CC[C@H]4CN(c5noc6ccccc56)CCN4C3)nc2)CC1 [Example 92, (7R,9aS)-trans-1-[6-(2-Benzo[d]isoxazol-3-yl-octahydro-pyrido[1,2-a]pyrazin-7-ylmethoxy)-pyridin-3-ylmethyl]-piperidin-4-ol]	≤ 20 nM
c1ccc2c(N3CCN4C[C@H](COc5ccc(CN6CCCCC6)cn5)CC[C@H]4C3)noc2c1 [Example 101, (7R,9aS)-trans-2-Benzo[d]isoxazol-3-yl-7-(5-piperidin-1-ylmethyl-pyridin-2-yloxymethyl)-octahydro-pyrido[1,2-a]pyrazine]	≤ 20 nM
CN(C)Cc1cccc(OC[C@@H]2CC[C@H]3CN(c4noc5ccccc45)CCN3C2)n1 [Example 81, (7R,9aS)-trans-[6-(2-Benzo[d]isoxazol-3-yl-octahydro-pyrido[1,2-a]pyrazin-7-ylmethoxy)-pyridin-2-ylmethyl]-dimethyl-amine]	≤ 20 nM
c1ccc(CNCc2cccc(OC[C@@H]3CC[C@H]4CN(c5noc6ccccc56)CCN4C3)n2)cc1 [Example 98, (7R,9aS)-trans-[6-(2-Benzo[d]isoxazol-3-yl-octahydro-pyrido[1,2-a]pyrazin-7-ylmethoxy)-pyridin-2-ylmethyl]-benzyl-amine]	≤ 20 nM
O[C@H]1CCN(Cc2cccc(OC[C@@H]3CC[C@H]4CN(c5noc6ccccc56)CCN4C3)n2)C1 [Example 87, (7R,9aS)-trans-1-[6-(2-Benzo[d]isoxazol-3-yl-octahydro-pyrido[1,2-a]pyrazin-7-ylmethoxy)-pyridin-2-ylmethyl]-(S)-pyrrolidin-3-ol]	≤ 20 nM
c1ccc2c(N3CCN4C[C@H](COc5ccc(CN6CCC6)cn5)CC[C@H]4C3)noc2c1 [Example 56, (7R,9aS)-trans-7-(5-Azetidin-1-ylmethyl-pyridin-2-yloxymethyl)-2-benzo[d]isoxazol-3-yl-octahydro-pyrido[1,2-a]pyrazine]	≤ 20 nM
c1ccc2c(N3CCN4C[C@@H](COc5ccc(CN6CCC6)cn5)CC[C@H]4C3)noc2c1 [Example 77, (7S,9aS)-cis-7-(5-Azetidin-1-ylmethyl-pyridin-2-yloxymethyl)-2-benzo[d]isoxazol-3-yl-octahydro-pyrido[1,2-a]pyrazine]	≤ 20 nM
COCCN(C)Cc1ccc(OC[C@@H]2CC[C@H]3CN(c4noc5ccccc45)CCN3C2)nc1 [Example 57, (7R,9aS)-trans-[6-(2-Benzo[d]isoxazol-3-yl-octahydro-pyrido[1,2-a]pyrazin-7-ylmethoxy)-pyridin-3-ylmethyl]-(2-methoxy-ethyl)-methyl-amine]	≤ 20 nM
CCN(CC)Cc1ccc(OC[C@@H]2CC[C@H]3CN(c4noc5ccccc45)CCN3C2)nc1 (relative stereo) [Example 53, (7R,9aS)-trans-[6-(2-Benzo[d]isoxazol-3-yl-octahydro-pyrido[1,2-a]pyrazin-7-ylmethoxy)-pyridin-3-ylmethyl]-diethyl-amine]	≤ 20 nM
O[C@@H]1CCN(Cc2ccc(OC[C@@H]3CC[C@H]4CN(c5noc6ccccc56)CCN4C3)nc2)C1 [Example 55, (7R,9aS)-trans-1-[6-(2-Benzo[d]isoxazol-3-yl-octahydro-pyrido[1,2-a]pyrazin-7-ylmethoxy)-pyridin-3-ylmethyl]-pyrrolidin-3-ol]	≤ 20 nM
